This is an account of results in PMC3566092.

These are yes or no findings as the source states them, for the method shown. Binding seen in cells or lysates may run through a third protein. Some entries that bind do so weakly or less than the wild type. Tags and fused reporters may be left off the sequences shown.

One assay deals with T1, Flag-WIP1 (UniProt O15297).
T1 sequence: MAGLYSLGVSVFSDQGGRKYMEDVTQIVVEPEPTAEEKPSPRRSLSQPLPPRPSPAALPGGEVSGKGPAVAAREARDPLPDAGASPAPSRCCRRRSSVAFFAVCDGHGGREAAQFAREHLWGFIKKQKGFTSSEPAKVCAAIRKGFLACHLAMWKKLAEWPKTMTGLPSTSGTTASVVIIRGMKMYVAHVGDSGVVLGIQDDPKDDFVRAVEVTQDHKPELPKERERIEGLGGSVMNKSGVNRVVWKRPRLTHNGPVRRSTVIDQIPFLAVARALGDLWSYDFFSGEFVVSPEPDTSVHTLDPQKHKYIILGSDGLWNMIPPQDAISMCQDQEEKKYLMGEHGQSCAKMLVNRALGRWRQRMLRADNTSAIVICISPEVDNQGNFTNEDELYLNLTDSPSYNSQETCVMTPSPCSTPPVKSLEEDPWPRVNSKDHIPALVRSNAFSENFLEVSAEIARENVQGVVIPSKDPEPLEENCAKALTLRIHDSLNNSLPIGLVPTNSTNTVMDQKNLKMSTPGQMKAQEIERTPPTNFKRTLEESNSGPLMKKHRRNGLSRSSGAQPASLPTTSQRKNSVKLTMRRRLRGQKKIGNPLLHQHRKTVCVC
In words: co-IP; 293 cells transfected with Flag-WIP1 alone or with CMV-Tax; nuclear lysates, Active Motif Nuclear Complex Co-IP Kit; immunoprecipitated with anti-WIP1 or anti-Tax antibodies, western blot with anti-Flag or anti-Tax.

The target of assay [1] is HTLV-1 Tax (expressed from a CMV-Tax plasmid) (human T cell leukemia virus type 1 (HTLV-1)) (UniProt P03409). The assay is described as above.

For “HTLV-1 Tax (expressed from a CMV-Tax plasmid) (from UniProt P03409 1-353)”, the binding entry with Flag-WIP1 is “binds”.

B1: Flag-WIP1 (enzyme, UniProt O15297 1-605)
chain: T1 sequence
Consider B1, for which, in assay [1], the binding result is on record as “binds”.
